Measured values as given in the supplement of paper PMC12067093, “Discovery and optimisation of a covalent ligand for TRIM25 and its application to targeted protein ubiquitination” (Chemical Science, 2025).
The list shows a part of the results.

Amino acid sequences for entries named in this document (tags omitted). A change or cut given only in a name is not applied to a line headed by its entry.
UniProt P11717, whole entry, looked up: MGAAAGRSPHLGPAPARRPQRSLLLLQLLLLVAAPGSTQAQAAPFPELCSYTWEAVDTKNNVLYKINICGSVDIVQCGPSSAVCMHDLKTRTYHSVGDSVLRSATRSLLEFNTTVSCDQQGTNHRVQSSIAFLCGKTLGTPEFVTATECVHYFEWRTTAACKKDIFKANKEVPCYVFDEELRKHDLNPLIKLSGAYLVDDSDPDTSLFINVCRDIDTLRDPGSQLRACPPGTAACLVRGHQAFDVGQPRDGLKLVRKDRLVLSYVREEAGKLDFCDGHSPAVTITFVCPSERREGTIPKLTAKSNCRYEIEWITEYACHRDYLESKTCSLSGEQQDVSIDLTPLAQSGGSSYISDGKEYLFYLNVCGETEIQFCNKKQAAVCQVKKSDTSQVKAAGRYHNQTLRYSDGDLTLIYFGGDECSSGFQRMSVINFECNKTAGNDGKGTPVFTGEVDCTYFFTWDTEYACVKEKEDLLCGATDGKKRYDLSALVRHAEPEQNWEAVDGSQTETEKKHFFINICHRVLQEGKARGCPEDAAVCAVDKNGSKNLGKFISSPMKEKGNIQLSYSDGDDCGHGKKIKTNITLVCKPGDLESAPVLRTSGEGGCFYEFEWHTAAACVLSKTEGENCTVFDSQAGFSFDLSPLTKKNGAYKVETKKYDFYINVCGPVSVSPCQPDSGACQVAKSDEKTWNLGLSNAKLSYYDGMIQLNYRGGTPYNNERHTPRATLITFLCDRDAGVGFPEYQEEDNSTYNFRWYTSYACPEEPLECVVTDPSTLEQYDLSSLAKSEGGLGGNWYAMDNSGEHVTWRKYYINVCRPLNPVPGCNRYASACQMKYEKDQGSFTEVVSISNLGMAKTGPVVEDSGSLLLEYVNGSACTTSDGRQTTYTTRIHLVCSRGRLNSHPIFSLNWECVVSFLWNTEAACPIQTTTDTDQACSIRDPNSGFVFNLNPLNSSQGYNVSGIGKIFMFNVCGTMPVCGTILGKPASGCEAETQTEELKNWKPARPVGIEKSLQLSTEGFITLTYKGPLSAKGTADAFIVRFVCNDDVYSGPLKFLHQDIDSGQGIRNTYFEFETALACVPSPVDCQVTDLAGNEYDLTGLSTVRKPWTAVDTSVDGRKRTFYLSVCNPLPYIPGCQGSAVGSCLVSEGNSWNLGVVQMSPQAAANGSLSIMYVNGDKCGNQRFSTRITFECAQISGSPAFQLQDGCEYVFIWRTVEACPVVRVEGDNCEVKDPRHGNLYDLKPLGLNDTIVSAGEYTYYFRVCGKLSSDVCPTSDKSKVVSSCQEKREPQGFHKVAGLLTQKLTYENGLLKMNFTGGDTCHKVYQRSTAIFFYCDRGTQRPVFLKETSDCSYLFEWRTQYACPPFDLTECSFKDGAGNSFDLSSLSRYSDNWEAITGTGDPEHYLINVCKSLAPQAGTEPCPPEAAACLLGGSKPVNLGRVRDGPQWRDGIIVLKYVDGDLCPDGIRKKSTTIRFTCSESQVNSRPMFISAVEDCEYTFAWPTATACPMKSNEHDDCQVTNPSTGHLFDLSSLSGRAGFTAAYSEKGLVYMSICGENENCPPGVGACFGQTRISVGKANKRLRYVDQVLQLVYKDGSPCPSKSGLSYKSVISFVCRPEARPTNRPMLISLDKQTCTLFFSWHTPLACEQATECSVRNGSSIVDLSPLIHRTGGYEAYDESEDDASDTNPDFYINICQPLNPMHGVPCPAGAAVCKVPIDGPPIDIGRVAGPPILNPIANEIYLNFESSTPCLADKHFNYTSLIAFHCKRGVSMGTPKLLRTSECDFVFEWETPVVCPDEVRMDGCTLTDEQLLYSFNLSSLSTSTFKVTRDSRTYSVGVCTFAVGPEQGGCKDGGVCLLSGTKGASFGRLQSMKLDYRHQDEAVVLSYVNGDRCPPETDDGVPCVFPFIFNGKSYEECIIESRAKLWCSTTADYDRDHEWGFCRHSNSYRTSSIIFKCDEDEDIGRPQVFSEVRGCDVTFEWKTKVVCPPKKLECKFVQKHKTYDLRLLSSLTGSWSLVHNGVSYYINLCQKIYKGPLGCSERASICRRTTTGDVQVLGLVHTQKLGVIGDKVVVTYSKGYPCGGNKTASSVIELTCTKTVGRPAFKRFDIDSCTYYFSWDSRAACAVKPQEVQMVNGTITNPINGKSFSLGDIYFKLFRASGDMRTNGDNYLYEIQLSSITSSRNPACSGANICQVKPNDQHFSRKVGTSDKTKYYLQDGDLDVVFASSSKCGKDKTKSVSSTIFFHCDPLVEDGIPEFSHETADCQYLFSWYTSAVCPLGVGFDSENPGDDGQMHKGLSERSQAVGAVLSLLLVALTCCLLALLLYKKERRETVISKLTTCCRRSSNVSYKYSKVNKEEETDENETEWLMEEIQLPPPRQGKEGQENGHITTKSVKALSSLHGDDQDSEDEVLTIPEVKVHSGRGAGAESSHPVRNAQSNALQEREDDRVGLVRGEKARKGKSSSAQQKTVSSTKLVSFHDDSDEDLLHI
UniProt O60921: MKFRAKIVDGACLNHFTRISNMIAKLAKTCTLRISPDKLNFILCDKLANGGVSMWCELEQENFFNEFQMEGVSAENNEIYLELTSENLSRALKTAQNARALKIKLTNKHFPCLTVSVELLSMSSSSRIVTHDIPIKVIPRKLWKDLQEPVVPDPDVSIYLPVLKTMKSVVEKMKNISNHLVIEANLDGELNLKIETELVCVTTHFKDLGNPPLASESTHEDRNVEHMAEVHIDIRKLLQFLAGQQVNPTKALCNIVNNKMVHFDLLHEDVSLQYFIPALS
UniProt Q9NSE4: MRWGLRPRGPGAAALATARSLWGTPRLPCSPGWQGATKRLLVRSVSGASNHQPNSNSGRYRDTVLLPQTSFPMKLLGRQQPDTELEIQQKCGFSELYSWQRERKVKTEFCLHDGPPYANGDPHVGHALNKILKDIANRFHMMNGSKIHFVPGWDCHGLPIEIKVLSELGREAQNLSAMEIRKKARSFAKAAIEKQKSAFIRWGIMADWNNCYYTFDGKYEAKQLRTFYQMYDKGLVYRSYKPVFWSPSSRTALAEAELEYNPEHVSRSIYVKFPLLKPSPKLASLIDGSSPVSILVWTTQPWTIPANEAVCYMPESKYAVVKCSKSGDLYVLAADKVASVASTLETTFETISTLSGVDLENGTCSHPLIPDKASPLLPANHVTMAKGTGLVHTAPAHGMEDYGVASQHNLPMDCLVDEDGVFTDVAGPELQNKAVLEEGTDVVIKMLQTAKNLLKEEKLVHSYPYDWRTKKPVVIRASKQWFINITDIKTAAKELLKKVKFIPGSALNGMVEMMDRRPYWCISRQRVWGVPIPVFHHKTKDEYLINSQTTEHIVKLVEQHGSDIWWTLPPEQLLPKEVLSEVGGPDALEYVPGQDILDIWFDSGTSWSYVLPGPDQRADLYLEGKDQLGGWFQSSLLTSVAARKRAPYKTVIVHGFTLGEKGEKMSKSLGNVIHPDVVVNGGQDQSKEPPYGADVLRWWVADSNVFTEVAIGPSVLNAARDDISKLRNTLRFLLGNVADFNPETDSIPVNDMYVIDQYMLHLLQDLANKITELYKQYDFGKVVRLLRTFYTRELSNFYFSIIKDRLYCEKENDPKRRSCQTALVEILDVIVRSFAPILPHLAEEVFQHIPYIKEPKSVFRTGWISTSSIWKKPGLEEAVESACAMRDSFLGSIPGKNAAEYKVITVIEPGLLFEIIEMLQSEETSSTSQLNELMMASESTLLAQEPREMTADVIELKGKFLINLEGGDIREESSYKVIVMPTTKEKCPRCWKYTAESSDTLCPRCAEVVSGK
UniProt Q16270: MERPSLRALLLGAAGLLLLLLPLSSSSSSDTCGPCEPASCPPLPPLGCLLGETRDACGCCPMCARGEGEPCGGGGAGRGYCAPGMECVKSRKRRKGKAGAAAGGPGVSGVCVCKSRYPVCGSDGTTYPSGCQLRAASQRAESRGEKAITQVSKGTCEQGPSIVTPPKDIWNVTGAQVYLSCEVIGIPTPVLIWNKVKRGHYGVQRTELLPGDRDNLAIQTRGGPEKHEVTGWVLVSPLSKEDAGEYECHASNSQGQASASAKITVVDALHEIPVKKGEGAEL
UniProt Q27J81, whole entry, looked up: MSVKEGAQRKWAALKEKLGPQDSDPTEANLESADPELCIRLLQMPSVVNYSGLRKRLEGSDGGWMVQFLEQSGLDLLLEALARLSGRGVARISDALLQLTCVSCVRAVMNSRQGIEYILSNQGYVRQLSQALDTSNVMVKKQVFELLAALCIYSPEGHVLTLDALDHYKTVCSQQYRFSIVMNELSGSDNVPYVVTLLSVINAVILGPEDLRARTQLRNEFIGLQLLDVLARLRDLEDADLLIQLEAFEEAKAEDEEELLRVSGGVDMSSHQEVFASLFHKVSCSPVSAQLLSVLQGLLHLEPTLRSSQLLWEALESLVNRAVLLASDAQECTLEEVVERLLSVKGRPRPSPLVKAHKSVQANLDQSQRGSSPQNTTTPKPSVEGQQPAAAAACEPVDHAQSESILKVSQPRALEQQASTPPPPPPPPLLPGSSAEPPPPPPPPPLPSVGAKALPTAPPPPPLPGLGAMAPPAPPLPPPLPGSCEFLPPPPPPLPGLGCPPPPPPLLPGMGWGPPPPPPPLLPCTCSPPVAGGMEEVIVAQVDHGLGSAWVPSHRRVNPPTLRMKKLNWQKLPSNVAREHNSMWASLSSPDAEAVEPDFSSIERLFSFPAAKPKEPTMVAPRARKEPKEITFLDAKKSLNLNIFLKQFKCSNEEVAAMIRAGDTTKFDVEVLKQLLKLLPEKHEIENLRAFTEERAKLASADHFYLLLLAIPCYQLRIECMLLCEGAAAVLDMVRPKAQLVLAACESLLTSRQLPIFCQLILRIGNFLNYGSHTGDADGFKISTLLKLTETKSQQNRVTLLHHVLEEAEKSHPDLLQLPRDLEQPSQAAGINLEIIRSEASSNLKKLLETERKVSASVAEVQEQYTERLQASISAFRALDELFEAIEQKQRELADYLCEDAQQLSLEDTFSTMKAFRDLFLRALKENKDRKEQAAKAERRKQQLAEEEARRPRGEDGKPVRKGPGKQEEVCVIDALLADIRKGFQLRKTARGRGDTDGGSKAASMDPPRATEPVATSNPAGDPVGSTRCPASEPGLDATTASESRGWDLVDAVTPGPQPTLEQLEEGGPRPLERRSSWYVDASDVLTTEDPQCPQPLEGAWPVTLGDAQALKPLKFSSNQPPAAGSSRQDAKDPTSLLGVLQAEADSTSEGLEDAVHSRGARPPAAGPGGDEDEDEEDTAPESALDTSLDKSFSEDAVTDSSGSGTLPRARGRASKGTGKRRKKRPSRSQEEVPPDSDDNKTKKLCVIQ
UniProt Q9H0C8: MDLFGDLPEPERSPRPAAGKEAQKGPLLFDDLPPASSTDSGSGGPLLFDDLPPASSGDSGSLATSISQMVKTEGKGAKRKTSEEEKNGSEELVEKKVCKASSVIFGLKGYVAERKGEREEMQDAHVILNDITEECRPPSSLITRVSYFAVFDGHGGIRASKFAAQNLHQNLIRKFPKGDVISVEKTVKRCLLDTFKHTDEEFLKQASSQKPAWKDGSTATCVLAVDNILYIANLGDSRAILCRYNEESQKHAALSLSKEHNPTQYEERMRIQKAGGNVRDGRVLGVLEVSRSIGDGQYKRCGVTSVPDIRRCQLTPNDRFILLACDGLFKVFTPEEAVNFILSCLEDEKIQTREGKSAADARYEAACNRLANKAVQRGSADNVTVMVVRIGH
UniProt Q9Y6K9, whole entry, looked up: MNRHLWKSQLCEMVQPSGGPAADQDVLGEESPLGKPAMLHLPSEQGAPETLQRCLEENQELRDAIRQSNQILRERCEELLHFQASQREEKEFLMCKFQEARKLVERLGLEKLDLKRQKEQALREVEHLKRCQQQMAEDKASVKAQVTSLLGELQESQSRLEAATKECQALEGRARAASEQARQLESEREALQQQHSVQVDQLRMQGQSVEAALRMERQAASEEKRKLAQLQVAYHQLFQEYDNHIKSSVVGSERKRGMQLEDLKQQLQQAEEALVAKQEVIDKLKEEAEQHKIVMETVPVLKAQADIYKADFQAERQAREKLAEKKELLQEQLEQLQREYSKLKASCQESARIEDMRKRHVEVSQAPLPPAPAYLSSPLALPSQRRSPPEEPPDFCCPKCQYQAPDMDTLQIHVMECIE
UniProt Q9P2X3: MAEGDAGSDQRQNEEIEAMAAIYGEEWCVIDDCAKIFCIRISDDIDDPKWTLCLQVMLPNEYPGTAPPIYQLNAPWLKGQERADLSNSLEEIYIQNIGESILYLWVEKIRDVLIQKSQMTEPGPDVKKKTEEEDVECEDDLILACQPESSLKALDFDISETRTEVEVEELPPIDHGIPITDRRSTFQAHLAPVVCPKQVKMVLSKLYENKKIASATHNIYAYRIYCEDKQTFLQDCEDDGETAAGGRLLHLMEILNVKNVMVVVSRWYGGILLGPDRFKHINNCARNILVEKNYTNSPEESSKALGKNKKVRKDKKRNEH

Compound: CC1Cc2ccccc2N1C(=O)C1CCCN(C1)C(=O)CCl (mixture of isomers) [TRIM25 ligand 11 (diastereomer mixture)]
Assay: probe-labelled cysteine peptide fold change vs DMSO (competition) (log2 fold change); higher = less target engagement (more negative = stronger competition)
Conditions: THP-1, incubation time: 4 h
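Note: competitive chemoproteomic profiling in live THP-1 cells with an iodoacetamide desthiobiotin (IA-DTB) probe, comparing probe-labelled peptide intensities in compound-treated cells against DMSO-treated controls.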

Row | Target | probe-labelled cysteine peptide fold change (10 µM) | probe-labelled cysteine peptide fold change (50 µM)
1 | HUWE1_Q7Z6Z7_612_EVLGSLPNVFSALCLNAR (UniProt Q7Z6Z7) | 0.171 | 0.0786
2 | IL1RAP_Q9NPH3_438_LCIFDRDSLPGGIVTDETLSFIQK (UniProt Q9NPH3) | 0.0923 | 0.143
3 | IK_Q13123_263_ADCPTMEAQTTLTTNDIVISK (UniProt Q13123) | -0.0926 | -0.184
4 | IGF2R_P11717_572_GNIQLSYSDGDDCGHGKK (UniProt P11717) | -0.121 | -0.178
5 | IDH1_O75874_269_SEGGFIWACK (UniProt O75874) | -0.0319 | 0.0185
6 | ILF2_Q12905_37_GGPGGGFRPFVPHIPFDFYLCEMAFPR (UniProt Q12905) | -0.147 | -0.158
7 | HUS1_O60921_200_IETELVCVTTHFK (UniProt O60921) | 0.0597 | 0.084
8 | IFT81_Q8WYA0_557_LREECLQEESR (UniProt Q8WYA0) | -0.0228 | 0.0267
9 | IARS2_Q9NSE4_819_SCQTALVEILDVIVR (UniProt Q9NSE4) | 0.153 | -0.107
10 | IGF2BP2_Q9Y6M1_255_KENSGAAEKPVTIHATPEGTSEACR (UniProt Q9Y6M1) | -0.152 | -0.066
11 | IGFBP7_Q16270_71_GEGEPCGGGGAGR (UniProt Q16270) | -0.2 | -0.139
12 | HUWE1_Q7Z6Z7_624_GLQSFVQCQPFER (UniProt Q7Z6Z7) | 0.0504 | -0.0208
13 | INPP5A_Q14642_381_VVTYDHIGPNVCMGDHKPVFLAFR (UniProt Q14642) | -0.0561 | 0.0215
14 | IKZF1_Q13422_175+178_CHLCNYACR (UniProt Q13422) | 0.0391 | -0.104
15 | IGF2R_P11717_893_IHLVCSR (UniProt P11717) | -0.0445 | 0.00867
16 | IFT74_Q96LB3_400_AQIEANIVALLEHCSR (UniProt Q96LB3) | -0.0935 | -0.0548
17 | HUWE1_Q7Z6Z7_3385_ACSPCSSQSSSSGICTDFWDLLVK (UniProt Q7Z6Z7) | 0.0372 | -0.102
18 | IFT122_Q9HBG6_519_CLDMSASR (UniProt Q9HBG6) | 0.064 | 0.0958

Row | Target | probe-labelled cysteine peptide fold change (10 µM) | probe-labelled cysteine peptide fold change (50 µM)
19 | INF2_Q27J81_971_KGPGKQEEVCVIDALLADIRK (UniProt Q27J81) | -0.359 | -0.314
20 | IGF2R_P11717_2113_RFDIDSCTYYFSWDSR (UniProt P11717) | 0.0991 | 0.0766
21 | IARS2_Q9NSE4_1005_CAEVVSGK (UniProt Q9NSE4) | -0.0191 | 0.042
22 | ILKAP_Q9H0C8_301_CGVTSVPDIRR (UniProt Q9H0C8) | -0.168 | 0.0621
23 | IKBKG_Q9Y6K9_396_RSPPEEPPDFCCPK (UniProt Q9Y6K9) | -0.0571 | 0.135
24 | INF2_Q27J81_971_QEEVCVIDALLADIR (UniProt Q27J81) | 0.00529 | -0.0623
25 | IFRD2_Q12894_147_EYVDCLTDK (UniProt Q12894) | -0.0616 | -0.0507
26 | IMPACT_Q9P2X3_137+145_KKTEEEDVECEDDLILACQPESSLK (UniProt Q9P2X3) | -0.0781 | -0.239
27 | IMPDH2_P12268_246_QLLCGAAIGTHEDDKYR (UniProt P12268) | -0.552 | -0.216
28 | HTT_P42858_1152_VINICAHVLDDVAPGPAIK (UniProt P42858) | 0.0583 | 0.184
29 | IGF2R_P11717_1783_TSECDFVFEWETPVVCPDEVR (UniProt P11717) | -0.144 | -0.672
30 | HUWE1_Q7Z6Z7_3333_HASGGSTVHIHPQAAPVVCR (UniProt Q7Z6Z7) | 0.433 | 0.158
31 | IKBKG_Q9Y6K9_417_CQYQAPDMDTLQIHVMECIE (UniProt Q9Y6K9) | -0.113 | -0.374
32 | INF2_Q27J81_898_ELADYLCEDAQQLSLEDTFSTMK (UniProt Q27J81) | 0.0336 | -0.231
33 | IMPDH1_P20839_215_GKLPIVNDCDELVAIIAR (UniProt P20839) | -0.173 | 0.0621
34 | IFT172_Q9UG01_1686_ALPCLITGYPILR (UniProt Q9UG01) | -0.0633 | 0.191
35 | HYI_Q5T013_248_GFVGCEYQPR (UniProt Q5T013) | 0.0282 | -0.0092
